The record followed here is PMC7674640.

Amino acid sequences for entries named in this document (tags omitted). Residues count along the entry.
UniProt Q9SI75, residues 81-783: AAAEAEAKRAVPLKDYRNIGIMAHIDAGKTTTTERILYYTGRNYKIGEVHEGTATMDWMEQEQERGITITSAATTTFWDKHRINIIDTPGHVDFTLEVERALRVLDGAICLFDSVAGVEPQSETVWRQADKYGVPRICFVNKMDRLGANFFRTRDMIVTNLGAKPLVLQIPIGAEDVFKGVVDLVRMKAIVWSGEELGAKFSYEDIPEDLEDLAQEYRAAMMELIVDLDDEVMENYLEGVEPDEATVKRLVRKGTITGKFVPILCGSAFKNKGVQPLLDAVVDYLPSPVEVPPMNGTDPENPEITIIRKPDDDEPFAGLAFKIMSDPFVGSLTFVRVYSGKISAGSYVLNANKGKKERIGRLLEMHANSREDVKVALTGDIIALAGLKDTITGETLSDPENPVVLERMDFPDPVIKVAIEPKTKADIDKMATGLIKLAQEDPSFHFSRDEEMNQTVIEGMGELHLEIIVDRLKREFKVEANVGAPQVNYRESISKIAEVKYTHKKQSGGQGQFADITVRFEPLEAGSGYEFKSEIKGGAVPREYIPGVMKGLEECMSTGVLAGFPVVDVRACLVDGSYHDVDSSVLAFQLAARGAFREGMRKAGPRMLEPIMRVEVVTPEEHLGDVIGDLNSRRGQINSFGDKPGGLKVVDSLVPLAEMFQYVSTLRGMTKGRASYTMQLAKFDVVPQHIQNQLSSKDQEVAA
UniProt Q9SJE1, residues 50-760: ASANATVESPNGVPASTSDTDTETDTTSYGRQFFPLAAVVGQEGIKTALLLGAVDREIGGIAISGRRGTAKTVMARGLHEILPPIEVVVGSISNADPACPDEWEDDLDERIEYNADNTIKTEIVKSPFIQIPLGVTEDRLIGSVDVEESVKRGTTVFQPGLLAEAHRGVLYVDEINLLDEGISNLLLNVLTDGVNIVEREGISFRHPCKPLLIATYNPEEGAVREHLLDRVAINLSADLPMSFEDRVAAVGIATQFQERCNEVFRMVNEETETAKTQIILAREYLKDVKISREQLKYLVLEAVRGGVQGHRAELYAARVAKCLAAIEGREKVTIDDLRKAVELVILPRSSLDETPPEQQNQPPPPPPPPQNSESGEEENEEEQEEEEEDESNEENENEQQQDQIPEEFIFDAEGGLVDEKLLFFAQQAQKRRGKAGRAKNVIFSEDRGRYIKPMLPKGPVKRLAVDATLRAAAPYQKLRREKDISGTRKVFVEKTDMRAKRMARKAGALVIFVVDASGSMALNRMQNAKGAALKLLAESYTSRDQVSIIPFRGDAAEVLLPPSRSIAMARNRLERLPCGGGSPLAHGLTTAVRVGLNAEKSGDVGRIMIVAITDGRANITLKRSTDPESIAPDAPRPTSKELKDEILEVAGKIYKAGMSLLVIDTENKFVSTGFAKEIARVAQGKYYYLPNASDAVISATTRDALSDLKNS
UniProt P34791, residues 80-260: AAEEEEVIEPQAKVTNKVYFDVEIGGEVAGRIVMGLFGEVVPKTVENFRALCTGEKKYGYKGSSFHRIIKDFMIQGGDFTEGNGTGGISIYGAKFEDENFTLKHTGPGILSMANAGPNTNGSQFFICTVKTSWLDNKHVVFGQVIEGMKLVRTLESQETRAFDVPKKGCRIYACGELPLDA
UniProt P17745, residues 68-476: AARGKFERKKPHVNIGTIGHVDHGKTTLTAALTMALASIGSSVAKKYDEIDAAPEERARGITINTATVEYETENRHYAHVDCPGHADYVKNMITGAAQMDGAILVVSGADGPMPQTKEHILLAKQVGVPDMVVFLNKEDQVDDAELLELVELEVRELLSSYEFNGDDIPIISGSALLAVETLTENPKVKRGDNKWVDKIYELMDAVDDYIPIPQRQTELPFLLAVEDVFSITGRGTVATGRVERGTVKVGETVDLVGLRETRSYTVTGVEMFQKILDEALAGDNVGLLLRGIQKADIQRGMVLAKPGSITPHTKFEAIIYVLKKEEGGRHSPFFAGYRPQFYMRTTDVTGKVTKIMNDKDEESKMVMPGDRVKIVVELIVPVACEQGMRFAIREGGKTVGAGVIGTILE

Results are given in words; binding and its absence hold for the method and conditions named. In cells and extracts the contact can be indirect. A yes stands for co-enrichment or nearness to the bait. Other partners may have been found. For part of these data: A no says only that the protein was not detected with the bait.

Sequences and labels used below:
B1: ribonuclease TUDOR-1 (protein, UniProt Q8VZG7 1-991)
chain: MATGAENQWLKGRVKAVTSGDCLVITALSHNRAGPPPEKTITFSSLMAPKMARRGGIDEPFAWESKEFLRKLCIGKEVAFKVDYKVEAIAGREFGSVFLGNENLAKLVVKTGWAKVREPGQQNQDKVSPYIKELLQLEELAKQEGYGRWSKVPGAAEASIRNLPPSAIGDSAGFDAMGLLAANKGKPMEGIVEQVRDGSTIRVYLLPEFQFVQVFVAGVQAPSMGRRTTNGSVVETVPDEPNGDVSAESRGPLTTAQRLAASAASSVEVSSDPFATEAKYFTEHRVLSRDVRIVLEGVDKFNNLIGSVHYSDGETVKDLGLELVENGLAKFVEWSANMMEEEAKKKLKAAELQCKKDKVKMWANYVPPATNSKAIHDQNFTGKVVEVVSGDCLIVADDAVPFGSPAAERRVCLSSIRSPKMGNPRREEKPAPYAREAREFLRQRLIGKQVIVQMEYSRKVTQGDGPTTSGAADRFMDFGSVFLPSAAKADSDEVTAPPAAAIAGSQPVGVNIAELVLVRGFGNVVRHRDFEERSNHYDALLAAEARALAGKKGIHSAKESPAMHITDLTVSAAKKAKDFLPSLQRIRRIPAVVEYVLSGHRFKLYIPKITCSIAFSFSGVRCPGRGEPYSEEAISVMRRRIMQRDVEIEVETVDRTGTFLGSMWESRTNVATVLLEAGLAKMQTSFGADRIAEAHLLEQAERSAKNQKLKIWENYVEGEEVSNGNTNTVETRQKETLKVVVTEVLGGGRFYVQSAGDQKIASIQNQLASLSIKDAPIIGSFNPKRGDIVLAQFSLDNSWNRAMIVTAPRAAVQSPDEKFEVFYIDYGNQETVPYSAIRPIDPSVSAAPGLAQLCRLAYIKVPSLEDDFGPEAGEYLHTVTLGSGKEFKAVIEERDTSGGKVKGQGTGTEFVVTLIAVDDEISVNAAMLQEGIARMEKRQKWGHKGKQAALDALEKFQEEARKSRIGIWQYGDIESDDEDTGPARKPAGGRR
B2: PORB (enzyme, UniProt P21218 67-401)
chain: QTAATSSPTVTKSVDGKKTLRKGNVVVTGASSGLGLATAKALAETGKWNVIMACRDFLKAERAAKSVGMPKDSYTVMHLDLASLDSVRQFVDNFRRTETPLDVLVCNAAVYFPTAKEPTYSAEGFELSVATNHLGHFLLARLLLDDLKKSDYPSKRLIIVGSITGNTNTLAGNVPPKANLGDLRGLAGGLNGLNSSAMIDGGDFDGAKAYKDSKVCNMLTMQEFHRRFHEETGVTFASLYPGCIASTGLFREHIPLFRALFPPFQKYITKGYVSETESGKRLAQVVSDPSLTKSGVYWSWNNASASFENQLSEEASDVEKARKVWEISEKLVGLA
B3: polyadenylate-binding protein 8 (protein, UniProt Q9FXA2 1-671)
chain: MAQIQHQGQNANGGVAVPGAAAAEAAAAAAGAAAAAAGAAQQGTTSLYVGDLDATVTDSQLFEAFTQAGQVVSVRVCRDMTTRRSLGYGYVNYATPQDASRALNELNFMALNGRAIRVMYSVRDPSLRKSGVGNIFIKNLDKSIDHKALHETFSAFGPILSCKVAVDPSGQSKGYGFVQYDTDEAAQGAIDKLNGMLLNDKQVYVGPFVHKLQRDPSGEKVKFTNVYVKNLSESLSDEELNKVFGEFGVTTSCVIMRDGEGKSKGFGFVNFENSDDAARAVDALNGKTFDDKEWFVGKAQKKSERETELKQKFEQSLKEAADKSQGSNLYVKNLDESVTDDKLREHFAPFGTITSCKVMRDPSGVSRGSGFVAFSTPEEATRAITEMNGKMIVTKPLYVALAQRKEDRKARLQAQFSQMRPVNMPPAVGPRMQMYPPGGPPMGQQLFYGQGPPAMIPQPGFGYQQQLVPGMRPGGSPMPNFFMPMMQQGQQQQQQQQQQQRPGGGRRGALPQPQQPSPMMQQQMHPRGRMYRYPQRDVNTMPGPTQNMLSVPYDVSSGGGVHHRDSPTSQPVPIVALATRLANAAPEQQRTMLGENLYPLVEQLEPESAAKVTGMLLEMDQTEVLHLLESPEALKAKVTEAMDVLRSVAQQQAGGAADQLASLSLGDNIVP

In one assay the target is SCO1-GFP (snowy cotyledon 1 fused to GFP) (Arabidopsis thaliana) (UniProt Q9SI75). The experiment in a line: affinity purification with mass spectrometry; plastidial stress granules (cpSG) from heat/dark-treated (42°C, 30 min) 35S:SCO1-GFP seedlings enriched by differential centrifugation, then purified with anti-GFP rabbit IgG and protein A Dynabeads; lysis buffer 50 mM Tris-HCl pH 7.4, 100 mM potassium acetate, 2 mM magnesium acetate, 0.5% NP-40; hits absent from or enriched (fold change > 2, p < 0.05) against isolates of control seedlings.
With B1, the binding entry is recorded as “no binding”.

Consider B2, for which the binding result was “binds”.

B3: the binding entry is recorded as “no binding”.

A further assay shares this target. The assay is described as above. This is another data set of the same source.
For the molecule “ALB1 (magnesium chelatase subunit) (from UniProt Q9SJE1 50-760)”, the binding result was “binds”.

As for “CYP20-3 (At3g62030) (from UniProt P34791 80-260) (enzyme)”, the binding entry is on record as “binds”.

Consider “translation elongation factor Tu (RABE1b) (from UniProt P17745 68-476)”, for which the binding result is reported as “binds”.
